This note sets out measurements from PMC5835904.

By UniProt entry, the sequences of proteins in these tests, tags left out. Where a name states a change or a piece, a line headed by the entry shows the natural chain unless it says otherwise. Residues count along the entry.
UniProt Q5S007: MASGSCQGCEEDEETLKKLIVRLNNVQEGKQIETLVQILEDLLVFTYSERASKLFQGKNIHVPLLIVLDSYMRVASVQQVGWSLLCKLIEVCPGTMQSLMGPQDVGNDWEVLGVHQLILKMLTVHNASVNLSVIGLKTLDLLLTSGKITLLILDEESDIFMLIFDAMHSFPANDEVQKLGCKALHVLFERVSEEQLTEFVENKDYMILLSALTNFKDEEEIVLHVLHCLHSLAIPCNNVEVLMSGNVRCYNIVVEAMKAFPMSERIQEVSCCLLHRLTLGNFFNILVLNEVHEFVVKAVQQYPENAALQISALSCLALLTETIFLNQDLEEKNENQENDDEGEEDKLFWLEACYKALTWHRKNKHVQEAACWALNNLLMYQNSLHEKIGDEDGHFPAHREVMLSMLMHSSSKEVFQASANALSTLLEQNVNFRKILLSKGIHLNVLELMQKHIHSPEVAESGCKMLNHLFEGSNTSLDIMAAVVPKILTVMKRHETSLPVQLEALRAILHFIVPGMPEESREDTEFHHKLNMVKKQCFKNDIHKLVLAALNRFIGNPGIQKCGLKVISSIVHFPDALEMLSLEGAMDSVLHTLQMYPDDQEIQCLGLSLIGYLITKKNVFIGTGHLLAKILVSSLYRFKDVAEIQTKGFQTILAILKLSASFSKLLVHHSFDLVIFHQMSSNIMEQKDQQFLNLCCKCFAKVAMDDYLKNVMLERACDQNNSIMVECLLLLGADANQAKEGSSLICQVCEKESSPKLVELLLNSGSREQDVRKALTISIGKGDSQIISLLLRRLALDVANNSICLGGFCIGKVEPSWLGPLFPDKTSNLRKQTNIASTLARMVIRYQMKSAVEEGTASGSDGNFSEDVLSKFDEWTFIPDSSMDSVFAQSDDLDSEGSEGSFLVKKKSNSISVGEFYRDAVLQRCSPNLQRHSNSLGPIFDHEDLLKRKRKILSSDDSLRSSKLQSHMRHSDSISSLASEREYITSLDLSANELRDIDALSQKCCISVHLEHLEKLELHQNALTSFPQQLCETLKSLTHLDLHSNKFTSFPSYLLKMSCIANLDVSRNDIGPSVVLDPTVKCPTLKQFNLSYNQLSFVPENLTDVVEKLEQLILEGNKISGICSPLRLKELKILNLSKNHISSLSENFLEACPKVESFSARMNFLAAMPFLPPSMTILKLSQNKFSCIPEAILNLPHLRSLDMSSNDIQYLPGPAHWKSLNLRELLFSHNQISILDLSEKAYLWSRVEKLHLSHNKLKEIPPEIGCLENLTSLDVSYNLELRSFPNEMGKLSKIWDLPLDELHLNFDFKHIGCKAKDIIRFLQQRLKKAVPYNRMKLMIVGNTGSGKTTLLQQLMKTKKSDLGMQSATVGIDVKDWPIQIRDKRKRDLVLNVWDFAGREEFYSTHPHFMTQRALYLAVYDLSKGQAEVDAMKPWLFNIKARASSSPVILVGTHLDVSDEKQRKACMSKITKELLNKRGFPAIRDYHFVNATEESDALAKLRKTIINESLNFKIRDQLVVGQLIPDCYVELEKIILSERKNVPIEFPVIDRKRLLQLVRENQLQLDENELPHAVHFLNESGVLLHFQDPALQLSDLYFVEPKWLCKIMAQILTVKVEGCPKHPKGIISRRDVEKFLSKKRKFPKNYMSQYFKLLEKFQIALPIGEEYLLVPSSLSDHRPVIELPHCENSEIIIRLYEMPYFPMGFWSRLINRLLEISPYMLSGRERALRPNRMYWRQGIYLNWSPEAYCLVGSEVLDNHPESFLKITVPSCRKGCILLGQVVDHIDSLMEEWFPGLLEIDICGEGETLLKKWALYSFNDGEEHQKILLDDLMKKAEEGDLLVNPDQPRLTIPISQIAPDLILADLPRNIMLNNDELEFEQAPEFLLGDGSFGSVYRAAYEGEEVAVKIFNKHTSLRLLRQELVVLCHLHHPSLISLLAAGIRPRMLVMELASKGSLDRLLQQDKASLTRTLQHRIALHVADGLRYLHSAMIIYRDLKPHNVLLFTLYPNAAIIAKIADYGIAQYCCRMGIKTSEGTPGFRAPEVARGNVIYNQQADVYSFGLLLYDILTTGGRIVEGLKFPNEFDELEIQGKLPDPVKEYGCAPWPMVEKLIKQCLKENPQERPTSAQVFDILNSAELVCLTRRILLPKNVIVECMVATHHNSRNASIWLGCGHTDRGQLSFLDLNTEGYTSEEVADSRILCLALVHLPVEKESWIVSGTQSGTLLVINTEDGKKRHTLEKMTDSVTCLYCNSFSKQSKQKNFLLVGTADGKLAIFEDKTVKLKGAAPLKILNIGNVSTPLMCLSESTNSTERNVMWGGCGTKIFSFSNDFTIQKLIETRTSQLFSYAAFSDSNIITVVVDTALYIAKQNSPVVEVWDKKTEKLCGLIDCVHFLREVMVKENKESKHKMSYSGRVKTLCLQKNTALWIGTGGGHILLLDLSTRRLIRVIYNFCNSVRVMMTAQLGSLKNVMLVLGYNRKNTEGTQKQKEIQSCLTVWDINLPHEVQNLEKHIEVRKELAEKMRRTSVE
GST-LRRK2 armadillo domain (aa 1-397) WT: residues 1-397 of Q5S007
UniProt P62258: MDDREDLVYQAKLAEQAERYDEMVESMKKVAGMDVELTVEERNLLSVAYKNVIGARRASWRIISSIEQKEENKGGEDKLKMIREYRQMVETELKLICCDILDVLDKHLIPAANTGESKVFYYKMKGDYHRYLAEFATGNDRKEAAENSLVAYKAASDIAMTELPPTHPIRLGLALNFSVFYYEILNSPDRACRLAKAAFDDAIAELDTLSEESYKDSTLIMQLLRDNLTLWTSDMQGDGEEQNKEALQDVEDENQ
UniProt Q8K1M6: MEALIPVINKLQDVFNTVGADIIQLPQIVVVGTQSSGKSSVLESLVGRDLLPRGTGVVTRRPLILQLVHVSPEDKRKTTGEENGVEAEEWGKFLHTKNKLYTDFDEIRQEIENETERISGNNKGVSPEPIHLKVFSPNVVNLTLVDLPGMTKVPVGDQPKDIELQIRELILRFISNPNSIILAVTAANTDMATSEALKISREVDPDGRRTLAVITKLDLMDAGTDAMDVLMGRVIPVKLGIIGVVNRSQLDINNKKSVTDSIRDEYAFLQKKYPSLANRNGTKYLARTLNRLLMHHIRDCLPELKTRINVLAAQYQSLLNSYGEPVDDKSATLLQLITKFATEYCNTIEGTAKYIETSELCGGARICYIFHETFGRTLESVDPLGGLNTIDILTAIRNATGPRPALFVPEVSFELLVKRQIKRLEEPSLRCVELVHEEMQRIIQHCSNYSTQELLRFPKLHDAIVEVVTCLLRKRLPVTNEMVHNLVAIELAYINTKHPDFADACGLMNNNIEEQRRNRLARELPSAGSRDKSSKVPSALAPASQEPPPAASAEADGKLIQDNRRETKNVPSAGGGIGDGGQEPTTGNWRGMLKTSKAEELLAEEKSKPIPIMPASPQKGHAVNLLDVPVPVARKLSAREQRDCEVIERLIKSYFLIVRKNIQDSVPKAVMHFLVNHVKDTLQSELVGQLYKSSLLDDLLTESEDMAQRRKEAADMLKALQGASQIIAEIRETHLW

In assay [1] the target is GST-LRRK2 armadillo domain (aa 1-397) WT (human) (UniProt Q5S007). Briefly: pull-down; 5 μg GST fusion protein on glutathione-sepharose, incubated with adult mouse brain lysate (1 mg total protein); washed with 300 mM NaCl, 50 mM Tris-HCl pH 7.4; blot with anti-DRP1 and anti-P-Ser616 DRP1; only the target purified.
Another assay concerns the target Strep-FLAG 14-3-3ε (UniProt P62258). Description: co-IP; N2A cells co-expressing FLAG-14-3-3ε and myc-LRRK2 variant; 14-3-3ε immobilised on anti-FLAG beads; bound myc-LRRK2 seen by western blot. A general note: In western blotting, separated proteins are transferred to a membrane and probed.

Results are given in words; binding and its absence hold for the method and conditions named. In cells and extracts the contact can be indirect. Some binding calls cover weakened binding; strength is not graded here.

Consider “DRP1 (total) from adult mouse brain lysate (from UniProt Q8K1M6 1-736)”, for which the binding result in assay [1] is given as “binds”. On to “myc-tagged LRRK2 E193K variant (from UniProt Q5S007 1-2527)”, for which, in the assay with Strep-FLAG 14-3-3ε, the binding entry is recorded as “binds”. Take “myc-tagged LRRK2 WT (full-length myc-hLRRK2) (from UniProt Q5S007 1-2527)”: the binding entry with Strep-FLAG 14-3-3ε is recorded as “binds”.

With “phospho-616 DRP1 from adult mouse brain lysate (from UniProt Q8K1M6 1-736)”, the binding entry in assay [1] was “binds”.
